From patent publication US4552864A (Reanal Finomvegyszergyar, priority 1982, dated 1985)
[ ]: non-standard residue; d: D form. pGlu = O=C1CC[C@@H](C(=O)O)N1

Assay: general procedure: solution-phase peptide synthesis; azide coupling (NaNO2/HCl from hydrazide); pentafluorophenyl active ester (OPFP)

Row | Substance | step yield (coupling step) [%] | other results
1 | [pGlu]HWSY-OMe | 100 | 
2 | Glp-His-Trp-Ser-Tyr-N2 H3 |  | step yield (late stage modification step, calculated for the two steps): 56.9%
3 | H-D-Thx-Leu-Arg-Pro-Gly-NH2.HCl |  | step yield (late stage modification step): 90%
4 | Glp-His-Trp-Ser-Tyr-D-Cpa-Leu-Arg-Pro-Gly-NH2 | 50 | 
5 | BOC-D-Cpa-Leu-Arg(NO2)-Pro-Gly-NH2 | 95 | 
6 | Glp-His-Trp-Ser-Tyr-D-Thx-Leu-Arg-Pro-Gly-NH2 | 25 | 
7 | H-D-Cpa-Leu-Arg-Pro-Gly-NH2.HF |  | step yield (late stage modification step): 85%
